PubChem BioAssay AID1259308 | NCATS, 2017
The whole screen tested about 59,000 reagents; shown is a part drawn at random. In the full data, about 1,510 (2.6%) are marked active. 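Calls use total luciferase alone and ignore viability, so some active siRNAs may act by altering cell number.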 Reagents against one gene are numbered here. Not all columns of the deposit are shown. No sequences are given here.

- Assay: 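Genes whose loss raises luciferase production in HEK293 cells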 (primary screen)
- Cells: human HEK293 embryonic kidney cells stably expressing firefly luciferase (HEK-CMV-Luc2-Hygro)
- Reagents: single siRNA against human genes, 0.8 pmol siRNA per well
- Duration: 72 h
- Measured: 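Reporter luminescence and viable-cell signal on separate replicate plates, given as percent of non-targeting control and median/MAD z-scores, plus per-cell luciferase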
- Scale: total luciferase, z-score and total luciferase, % of control: higher = more reporter protein produced
- Active means: 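An siRNA counts as active if its total luciferase robust z-score exceeds 3; genes with two or more such siRNAs out of three were retested with fresh siRNAs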
- Meaning of the calls: active = raised luciferase; inactive = no rise

CYB5R2 (cytochrome b5 reductase 2) #1 → total luciferase, z-score: -0.0644; total luciferase, % of control: 80.6; Outcome: inactive
CYB5R2 (cytochrome b5 reductase 2) #2 → total luciferase, z-score: 0.0868; total luciferase, % of control: 83.6; Outcome: inactive
CYB5R2 (cytochrome b5 reductase 2) #3 → total luciferase, z-score: 0.498; total luciferase, % of control: 91.8; Outcome: inactive
BAHCC1 (BAH domain and coiled-coil containing 1) #1 → total luciferase, z-score: 1.37; total luciferase, % of control: 109; Outcome: inactive
BAHCC1 (BAH domain and coiled-coil containing 1) #2 → total luciferase, z-score: 3.16; total luciferase, % of control: 145; Outcome: active
BAHCC1 (BAH domain and coiled-coil containing 1) #3 → total luciferase, z-score: -0.458; total luciferase, % of control: 72.8; Outcome: inactive
BCKDHA (branched chain keto acid dehydrogenase E1 subunit alpha) #1 → total luciferase, z-score: -0.584; total luciferase, % of control: 70.3; Outcome: inactive
BCKDHA (branched chain keto acid dehydrogenase E1 subunit alpha) #2 → total luciferase, z-score: -2.19; total luciferase, % of control: 38.3; Outcome: inactive
BCKDHA (branched chain keto acid dehydrogenase E1 subunit alpha) #3 → total luciferase, z-score: -0.573; total luciferase, % of control: 70.5; Outcome: inactive
UBXN2B (UBX domain protein 2B) #1 → total luciferase, z-score: 0.592; total luciferase, % of control: 93.7; Outcome: inactive
UBXN2B (UBX domain protein 2B) #2 → total luciferase, z-score: 0.692; total luciferase, % of control: 95.6; Outcome: inactive
UBXN2B (UBX domain protein 2B) #3 → total luciferase, z-score: -0.576; total luciferase, % of control: 70.4; Outcome: inactive

Next part; the last 2 above are carried over.
UBXN2B (UBX domain protein 2B) #2 → total luciferase, z-score: 0.692; total luciferase, % of control: 95.6; Outcome: inactive
UBXN2B (UBX domain protein 2B) #3 → total luciferase, z-score: -0.576; total luciferase, % of control: 70.4; Outcome: inactive
SRD5A2 (steroid 5 alpha-reductase 2) #1 → total luciferase, z-score: -0.69; total luciferase, % of control: 68.2; Outcome: inactive
SRD5A2 (steroid 5 alpha-reductase 2) #2 → total luciferase, z-score: -0.0245; total luciferase, % of control: 81.4; Outcome: inactive
SRD5A2 (steroid 5 alpha-reductase 2) #3 → total luciferase, z-score: -1.07; total luciferase, % of control: 60.7; Outcome: inactive
SMIM45 (small integral membrane protein 45) #1 → total luciferase, z-score: -0.308; total luciferase, % of control: 75.8; Outcome: inactive
SMIM45 (small integral membrane protein 45) #2 → total luciferase, z-score: 0.432; total luciferase, % of control: 90.5; Outcome: inactive
SMIM45 (small integral membrane protein 45) #3 → total luciferase, z-score: 1.18; total luciferase, % of control: 105; Outcome: inactive
MT1H (metallothionein 1H) #1 → total luciferase, z-score: -1.48; total luciferase, % of control: 52.4; Outcome: inactive
MT1H (metallothionein 1H) #2 → total luciferase, z-score: 1.76; total luciferase, % of control: 117; Outcome: inactive
MT1H (metallothionein 1H) #3 → total luciferase, z-score: 0.0347; total luciferase, % of control: 82.6; Outcome: inactive
